Measurements reported in PubChem BioAssay AID686937 (Drosophila RNAi Screening Center, 2013)
The deposit covers about 23,000 reagents; this is an unselected part of those that have a named target and a result. 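Reduced-secretion tags in replicate 1 do not always agree with the z-scores; no criterion for assigning the tags was given.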 A plus sign joins genes that one reagent is predicted to hit. Not all columns of the deposit are shown. The record does not give: the amount of reagent.

Aim: 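Genes in the fly needed for secretion of protein constitutively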 (primary screen)
System: Drosophila S2 cells expressing secreted horseradish peroxidase
Reagents: long dsRNA against Drosophila genes
Timing: about 5.5 days (5 days dsRNA, then 12 h reporter induction)
Conditions: reporter expression induced after 5 days of dsRNA, read 12 h later; inducer not stated
Read-out: 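Chemiluminescent measurement of peroxidase in the medium 12 h after reporter induction, following 5 days of dsRNA, given as a z-score per plate; higher means more secretion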
Reading the numbers: z-score: higher = more reporter secreted into medium

z-score, replicate 1, by gene and reagent
stai: DRSC02920 0.21; DRSC22235 0.31
Kpc2: DRSC07635 0.52
roq: DRSC10227 0.24
CG13218: DRSC06340 0.29
onecut: DRSC17175 0.48
CG31784: DRSC01574 -0.16
CG13423: DRSC06386 -0.16
COX7C: DRSC06831 -0.12
shtd: DRSC20166 -0.17
Hcs: DRSC12070 0.24; DRSC12256 0.17
CG5290: DRSC10501 0.45
Nt5a: DRSC08561 0.36
thw: DRSC12552 0.3
bdwf: DRSC15532 0.41
ldbr: DRSC10933 -0.45
CG32809: DRSC18507 -0.86; DRSC18592 0.13
LamC: DRSC07453 0.46
Prx2: DRSC20256 0.25
Ldaf1: DRSC17963 0.52
UbcE2M: DRSC10828 -0.08
CG6231: DRSC15997 0.38
Boot: DRSC06412 0.24
CG44014 + CG44013: DRSC14995 -0.01
CG34160: DRSC01131 -0.25
LysP: DRSC08676 0.63
CG31463: DRSC14346 -0.31
Rab26: DRSC11837 0.36; DRSC11838 0.47; DRSC11839 0.31
CG9577: DRSC20693 0.59
Ubc87F: DRSC16513 0.49
ND-42: DRSC16754 0.17
CG3734: DRSC15509 0.24
Klp10A: DRSC19601 0.08
CG4020: DRSC18337 0.24
CG13631: DRSC14632 0.16

In a second layout: entries from further up
CG31463 [DRSC14346] — z-score, replicate 1: -0.31
Rab26 [DRSC11837] — z-score, replicate 1: 0.36
Rab26 [DRSC11838] — z-score, replicate 1: 0.47
Rab26 [DRSC11839] — z-score, replicate 1: 0.31
CG9577 [DRSC20693] — z-score, replicate 1: 0.59
Ubc87F [DRSC16513] — z-score, replicate 1: 0.49
ND-42 [DRSC16754] — z-score, replicate 1: 0.17

The list goes on:
z-score, replicate 1, by gene and reagent
mRpS18C: DRSC16538 0.02
tut: DRSC08909 0.45
CG8944: DRSC20128 0.23; DRSC21342 0.82
GstD8: DRSC16689 0.4
CG14223: DRSC19580 0.34
Tmtc3: DRSC04444 0.44
CG31122: DRSC14787 -0.03; DRSC16286 0.48
CG32248: DRSC08102 -0.06
Etf-QO: DRSC06111 0.16
CG11353: DRSC08182 0.37
ND2 (retired record): DRSC21274 0.53
Spt5: DRSC07556 -2.34
Ass + CG31286: DRSC12493 0.21
Ube4A: DRSC02004 0.02
Nmnat: DRSC14644 0.43
CG31347: DRSC21582 0.56
CG32201: DRSC22452 -0.12
CG42714: DRSC08798 -0.04
CG14408: DRSC19595 0.5
brn: DRSC18746 0.38
ATPCL: DRSC05913 0.27
ppk31: DRSC13811 0.42
CG43271: DRSC01614 0.34; DRSC21741 -0.43
Gr94a: DRSC13597 0.46
CG2921: DRSC04324 -0.04
CG8306: DRSC07141 0.04
CG1105: DRSC12528 0.24
ema: DRSC14536 -0.55
CG6041: DRSC18396 0.33
CG14511: DRSC14863 0.16
kcc: DRSC04316 0.24; DRSC04516 0.31
CG11149: DRSC02130 0.19
unc-13-4A: DRSC10201 0.35; DRSC10202 0.11; DRSC10203 -4.54; DRSC11013 0.24
CG14631: DRSC17792 0.3; DRSC17941 0.34
CG4000: DRSC15535 0.55; DRSC21547 0.11
